Assay results reported in PubChem BioAssay AID2685 (National Center for Advancing Translational Sciences (NCATS), 2010).
The other results are listed elsewhere or left out. These are further read-outs of the screen, such as a control signal, another cell line or another target. No call is given for them. The list favours compounds with an active or inconclusive main result. The note in brackets gives the kind of curve behind each potency; many fits are weak. Where a SMILES comes first, the peptide text is derived from it. [ ]: non-standard residue; d: D form. The star is where a group is joined. ξ: configuration not given here. Cbz = O=C(OCc1ccccc1)*; ξP = O=C(O)C1CCCN1

Assay: qHTS Assay for Lipid Storage Modulators in Drosophila S3 Cells;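 for cell number change: cells counted by Cell Tracker Red CMTPX staining in the red channel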
Details: BODIPY lipid droplet fluorescence, 18-24 h; for cell number change: measured here: cell count max response, cells fed with added oleic acid
How it was run: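 Laser-scanning cytometry quantifies lipid droplet accumulation (500–530 nm total intensity; droplet/cell object ratio) in oleic acid-fed (400 uM added) Drosophila S3 cells treated with a concentration series. 20 uM Triacsin C defined 100% inhibition.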

[1] = measured here: lipid fluorescence (Fed channel) AC50, cells fed with added oleic acid
[2] = measured here: cell number channel AC50, cells fed with added oleic acid

Compound | cell number change [%] | AC50 [1] | AC50 [2]
COc1ccc(NC(=O)c2cc(C)cc(C)c2)cc1S(=O)(=O)N1CCCCC1 | 1.25 | – | –
CCOc1ccc(NC(=O)CCC(=O)N/N=C/c2ccc3c(c2)OCO3)cc1 | 25.1 | 4.61 µM [rising, full curve, poor fit] | –
COC(=O)[C@@H](CC(C)C)NS(=O)(=O)N(Cc1ccccc1)[C@@H](CC(C)C)C(=O)OC | -40.6 | – | 16.4 µM [falling, single point]
CCN(CC)S(=O)(=O)c1cccc(NC(=O)COc2ccc(Cl)cc2Br)c1 | 0.754 | 0.651 µM [rising, partial curve] | –
CC(C)(C)C(=O)NC1CC2CCCC(C1)N2C(=O)Nc1ccccc1F (stereo not drawn) | 10.6 | – | –
CCOc1ccc(CC(=O)NC2CC(C)(C)N(C)C(C)(C)C2)cc1OCC | -32.4 | 1.3 µM [falling, full curve, poor fit] | 1.03 µM [falling, full curve, poor fit]
Cc1nn(C)cc1S(=O)(=O)N1CCN(Cc2ccccc2Cl)CC1 | -32.5 | – | –
Cn1nc(C(C)(C)C)cc1C(=O)Nc1nc2c(s1)C(=O)CC(C)(C)C2 | -25.3 | 4.11 µM [falling, single point] | –
CCOc1cc(/C=N/NC(=O)CSc2nncn2C)ccc1OCC(N)=O | -4.21 | 0.731 µM [falling, full curve, poor fit] | –
Cc1cc(=O)oc2cc(OCC(=O)N3CCN(c4ccc(F)cc4)CC3)ccc12 | – | 29.1 µM [falling, single point] | –
CSc1ccccc1NC(=O)Nc1cccc(Cl)c1Cl | 45.2 | 29.1 µM [rising, single point] | 13 µM [rising, partial curve]
COC(=O)[C@@]12CCCN1[C@H](c1ccc(-c3ccc4c(c3)OCO4)c(OC)c1)[C@H]1C(=O)N(C)C(=O)[C@H]12 | -28.6 | – | –
NC(=O)CC(NC(=O)Cc1cccc2ccccc12)c1ccc(NCCCN2CCCC2=O)c([N+](=O)[O-])c1 (stereo not drawn) | 8.98 | 10.3 µM [rising, partial curve] | –
CCN(C(=O)CSc1nc2ccccc2c(=O)n1Cc1ccc(C)cc1)C1CCS(=O)(=O)C1 (stereo not drawn) | – | 0.231 µM [rising, full curve] | –
O=C(CCC(=O)N1CCSc2ccccc21)Nc1cccc(F)c1 | 15.3 | – | –
Cc1nn(CC(=O)O)c(C)c1N | -17 | 0.206 µM [falling, full curve] | –
NC(=O)CC(NC(=O)Cc1cccc2ccccc12)c1ccc(N2CCCCCCC2)c([N+](=O)[O-])c1 (stereo not drawn) | -38.5 | 29.1 µM [falling, partial curve, poor fit] | 29.1 µM [falling, single point]
O=C(COC(=O)C1(c2ccccc2)CC1)N1CCN(c2ccc(F)cc2)CC1 | 9.64 | 29.1 µM [rising, single point] | 0.411 µM [falling, partial curve, poor fit]
CC(C)COCC(CN(Cc1ccccc1)c1ccccc1)N1CCCC1 (stereo not drawn) | -50.9 | 1.46 µM [falling, partial curve] | 18.4 µM [falling, single point]

Compound | cell number change [%] | AC50 [1] | AC50 [2]
Cc1cc(=O)oc2cc3oc(=O)cc(C)c3cc12 | -15 | 16.4 µM [falling, partial curve] | –
Oc1ccccc1N1CCN(c2ncccn2)CC1 | 2.3 | – | –
Cc1ccc2c(c1)N(Cc1cccc(C#N)c1)C=NS2(=O)=O | 38.7 | 18.4 µM [rising, partial curve] | 0.92 µM [rising, full curve, poor fit]
COc1ccc(C(CNC(=O)c2cccc(S(=O)(=O)Nc3ccc(F)cc3)c2)N(C)C)cc1 (stereo not drawn) | – | 20.6 µM [falling, partial curve] | –
Cc1cc(C)cc(NC(=O)CSc2cc(C(=O)c3nccn3C)c3ccccc3n2)c1 | 6.27 | – | –
N=c1n(CCN2CCOCC2)c2ccccc2n1CC(=O)c1ccc(Cl)c(Cl)c1 | -55.1 | 0.00461 µM [falling, full curve] | 0.651 µM [falling, partial curve, poor fit]
COC(=O)c1cccc(C(=O)N2CCCC(C(=O)c3cccc(OC(C)C)c3)C2)c1 (stereo not drawn) | 37.3 | 29.1 µM [falling, partial curve, poor fit] | 29.1 µM [rising, single point]
CC(C)(C)OC(=O)[C@H](Cc1ccccc1)NC(=O)c1[nH]cnc1C(=O)Nc1cccc(Cl)c1 | -24.5 | 29.1 µM [falling, single point] | –
O=C(NCCCCc1ccccc1)c1ccc(Br)o1 | -29.7 | 3.66 µM [falling, partial curve] | 2.06 µM [falling, full curve, poor fit]
O=C(Nc1ccc(Cc2ccncc2)cc1)C1CCC(N2C(=O)C3CCCCC3C2=O)CC1 (stereo not drawn) | -32.2 | 18.4 µM [falling, single point] | 29.1 µM [falling, single point]
O=C(NCCc1csc(-c2cccnc2)n1)c1ccccc1 | – | 1.84 µM [rising, partial curve] | 1.84 µM [rising, partial curve]
CCc1oc(C(=O)O)cc1CN(CC)CC | -49 | 0.13 µM [falling, full curve, poor fit] | 23.1 µM [falling, partial curve]
CCOC(=O)C(C)Sc1nnc(-c2ccccc2O)n1Cc1ccccc1 (stereo not drawn) | 13.7 | 18.4 µM [rising, single point] | –
O=C(CCC1CCCC1)N1CCN(C2CCCC2)CC1 | 14.5 | – | –
O=C(N/C(=C/c1cccnc1)C(=O)N1CCCCCC1)c1ccccc1 | 1.9 | – | –
Cc1csc(NC(=O)c2ccc(N3CCCC3=O)cc2)n1 | 9.52 | – | 6.51 µM [rising, single point]
CCOc1ccccc1N(C(=O)c1snc(C(N)=O)c1N)C(C(=O)NCCC(C)C)c1ccco1 (stereo not drawn) | -13.4 | 0.00461 µM [falling, full curve] | 0.0058 µM [falling, full curve, poor fit]
O=C(Nc1ccc(Oc2cccnc2)nc1)c1ccc(C(F)(F)F)cc1 | -37.1 | 16.4 µM [falling, single point] | 20.6 µM [falling, single point]
Cc1ccc(-n2nc3c(=O)n(CCCC(=O)N4CCC(C)CC4)nc(C)c3c2C)cc1 | -53.9 | – | 3.66 µM [falling, single point]

Compound | cell number change [%] | AC50 [1] | AC50 [2]
COc1cccc2c1OC[C@@H](CO)[C@H]2N(C)C(=O)Nc1ccc(Cl)cc1 | 9.48 | 2.31 µM [rising, partial curve, poor fit] | –
CCCCN=C(N)/C(C(=O)OCC)=C(\O)c1ccc(OC)cc1 | -30.8 | 0.103 µM [falling, full curve, poor fit] | 8.2 µM [falling, partial curve, poor fit]
CC1CCCN(C(=O)CN2C(=O)c3ccccc3C2=O)C1 (stereo not drawn) | -32.5 | 2.06 µM [falling, partial curve, poor fit] | 5.8 µM [falling, partial curve, poor fit]
CC(C)(C)c1ccc(OCCCC(=O)Nc2cccc(S(=O)(=O)N3CCOCC3)c2)cc1 | 182 | – | 20.6 µM [rising, partial curve]
COc1ccccc1Cn1c(=S)[nH]c2cc(C(=O)N3CCCC3)ccc2c1=O | 11 | 8.2 µM [rising, partial curve] | –
Cc1cc(C(=O)Nc2ccccc2N2CCOCC2)no1 | -21.4 | 0.411 µM [falling, full curve, poor fit] | 0.291 µM [falling, full curve]
CCCN(CC(=O)Nc1ccc(F)c(F)c1F)C(=O)C1=COCCO1 | 23.3 | – | –
O=C(C1=C(O)C(=O)N(CCCN2CCOCC2)C1c1ccc(Cl)cc1)c1cc2ccccc2o1 (stereo not drawn) | -6.42 | – | –
O=C(Cn1cc(C(F)(F)F)ccc1=O)N/N=C/c1cccc(Cl)c1 | -12.6 | – | 0.00461 µM [rising, full curve, poor fit]
NC(=O)c1cn(-c2ccccc2)nc1-c1cccnc1 | 102 | – | 14.6 µM [rising, partial curve]
CS(=O)(=O)N(CC(=O)NCc1ccco1)c1ccc(Cl)cc1Cl | 4.15 | – | –
O=C(Nc1cccc(-c2nc3ncccc3o2)c1)c1sc2cc(Cl)ccc2c1Cl | 0.0766 | 29.1 µM [rising, single point] | –
Cc1c(C(=O)N2CCOCC2)sc2nc(-c3ccccc3)cn12 | 2.11 | 7.31 µM [falling, partial curve, poor fit] | –
O=C(O)c1occc1CSc1ccccc1 | 31.5 | 0.58 µM [falling, single point] | 0.0651 µM [rising, full curve, poor fit]
O=C(CO)N/N=C/c1c2ccccc2cc2ccccc12 | 81.2 | – | 29.1 µM [rising, single point]
C=CCn1c(C)cc(C(=O)COC(=O)c2ccc3c(c2)NC(=O)CS3)c1C | 44.3 | – | 25.9 µM [rising, single point]
CC[C@H](C)NC(=O)c1ccc(Cn2c(=S)[nH]c3c([nH]c4ccc(OC)cc43)c2=O)cc1 | -12.5 | 29.1 µM [falling, single point] | –
O=C(O)CNC(=O)C1CCCN1C(=O)CNC(=O)OCc1ccccc1 (stereo not drawn) (Cbz-Gly-[ξP]-Gly-OH) | – | 6.51 µM [falling, single point] | –

Some of the entries above, set out differently:

| Compound | cell number change [%] | AC50 [1] | AC50 [2] |
| --- | --- | --- | --- |
| CCCCN=C(N)/C(C(=O)OCC)=C(\O)c1ccc(OC)cc1 | -30.8 | 0.103 µM [falling, full curve, poor fit] | 8.2 µM [falling, partial curve, poor fit] |
| CS(=O)(=O)N(CC(=O)NCc1ccco1)c1ccc(Cl)cc1Cl | 4.15 | – | – |
